Here are results for one sequence from paper PMC8384837.

What all share (conditions): yeast three-hybrid, YBZ-1, SC-Leu-His + 0.5 mM 3-AT, 4 days
The target in test [1] is T1, PUM1 PUF domain R3-ARL C935A + Q939L (Homo sapiens) (UniProt Q14671).
T1 sequence: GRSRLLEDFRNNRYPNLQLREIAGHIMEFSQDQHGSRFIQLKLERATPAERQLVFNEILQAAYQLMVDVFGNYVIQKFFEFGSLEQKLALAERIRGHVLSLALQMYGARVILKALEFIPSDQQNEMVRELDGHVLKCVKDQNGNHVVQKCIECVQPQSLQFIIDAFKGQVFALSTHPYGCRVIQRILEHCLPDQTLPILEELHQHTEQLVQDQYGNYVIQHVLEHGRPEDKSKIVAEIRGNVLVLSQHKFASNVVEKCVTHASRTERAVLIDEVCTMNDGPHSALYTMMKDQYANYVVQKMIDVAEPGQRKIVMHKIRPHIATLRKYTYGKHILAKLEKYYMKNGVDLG

For test [2], the target named is T2, PUM1 PUF domain R3-ARV C935A + Q939V (Homo sapiens) (UniProt Q14671).
T2 sequence: T1 sequence with L112V

For test [3], the target named is T3, PUM1 PUF domain R3-DFV C935D + R936F + Q939V (Homo sapiens) (UniProt Q14671).
T3 sequence: T1 sequence with A108D, R109F, L112V

Test [4] deals with T4, PUM1 PUF domain R3-GPS C935G + R936P + Q939S (Homo sapiens) (UniProt Q14671).
T4 sequence: T1 sequence with A108G, R109P, L112S

Test [5] concerns the target T5, PUM1 PUF domain R3-GRV C935G + Q939V (Homo sapiens) (UniProt Q14671).
T5 sequence: T1 sequence with A108G, L112V

Test [6] concerns the target T6, PUM1 PUF domain R3-GYW C935G + R936Y + Q939W (Homo sapiens) (UniProt Q14671).
T6 sequence: T1 sequence with A108G, R109Y, L112W

Test [7] has as its target T7, PUM1 PUF domain R3-RAV C935R + R936A + Q939V (Homo sapiens) (UniProt Q14671).
T7 sequence: T1 sequence with A108R, R109A, L112V

Test [8] concerns the target T8, PUM1 PUF domain R3-RPR C935R + R936P + Q939R (Homo sapiens) (UniProt Q14671).
T8 sequence: T1 sequence with A108R, R109P, L112R

Test [9] deals with T9, PUM1 PUF domain R3-RPS C935R + R936P + Q939S (Homo sapiens) (UniProt Q14671).
T9 sequence: T1 sequence with A108R, R109P, L112S

The target in test [10] is T10, PUM1 PUF domain R3-RSV C935R + R936S + Q939V (Homo sapiens) (UniProt Q14671).
T10 sequence: T1 sequence with A108R, R109S, L112V

Test [11] has as its target T11, PUM1 PUF domain R3-RTF C935R + R936T + Q939F (Homo sapiens) (UniProt Q14671).
T11 sequence: T1 sequence with A108R, R109T, L112F

The target in test [12] is T12, PUM1 PUF domain R3-RTG C935R + R936T + Q939G (Homo sapiens) (UniProt Q14671).
T12 sequence: T1 sequence with A108R, R109T, L112G

The target in test [13] is T13, PUM1 PUF domain R3-RTS C935R + R936T + Q939S (Homo sapiens) (UniProt Q14671).
T13 sequence: T1 sequence with A108R, R109T, L112S

For test [14], the target named is T14, PUM1 PUF domain R3-RTV C935R + R936T + Q939V (Homo sapiens) (UniProt Q14671).
T14 sequence: T1 sequence with A108R, R109T, L112V

Test [15] addresses T15, PUM1 PUF domain R3-RVM C935R + R936V + Q939M (Homo sapiens) (UniProt Q14671).
T15 sequence: T1 sequence with A108R, R109V, L112M

Test [16] has as its target T16, PUM1 PUF domain R3-SRL C935S + Q939L (Homo sapiens) (UniProt Q14671).
T16 sequence: T1 sequence with A108S

For test [17], the target named is T17, PUM1 PUF domain R3-VRF C935V + Q939F (Homo sapiens) (UniProt Q14671).
T17 sequence: T1 sequence with A108V, L112F

For test [18], the target named is T18, PUM1 PUF domain R3-VRI C935V + Q939I (Homo sapiens) (UniProt Q14671).
T18 sequence: T1 sequence with A108V, L112I

In test [19] the target is T19, PUM1 PUF domain R3-VRY C935V + Q939Y (Homo sapiens) (UniProt Q14671).
T19 sequence: T1 sequence with A108V, L112Y

The target in test [20] is T20, PUM1 PUF domain R3-VWP C935V + R936W + Q939P (Homo sapiens) (UniProt Q14671).
T20 sequence: T1 sequence with A108V, R109W, L112P

Changes are numbered by the printed parent chain. This is one part of the list.

With “GGCUAGAACUAGUGGAUCCCCCGGCGCCCGGCGGCUCGAGCCCGGGUAAGUGUAAGUAGUCUGCAUGCCGCCGGGCGCCAUGCCUGCAGGUCGACUCUAGAAAACAUG”, the binding signal (log2 enrichment (interaction score)) is -0.83 in [1]; -0.43 in test [2]; -1.22 in [3]; -0.95 in [4]; -0.8 in test [5]; -0.49 in test [6]. The binding signal (log2 enrichment (interaction score)) is -1.18 in test [7]; -0.71 in test [8]; -1.08 in [9]; -0.71 in [10]; -1.05 in test [11]; -0.61 in [12]. The binding signal (log2 enrichment (interaction score)) in test [13] was -0.46; in test [14], -0.94; in test [15], -0.75; in test [16], -1.1; in [17] it was -0.56; in test [18], -0.92. The binding signal (log2 enrichment (interaction score)) in [19] was -1.2; in test [20] it was -1.07.
